From PubChem BioAssay AID540353 (National Center for Advancing Translational Sciences (NCATS), 2011)
Inconclusive means that the source gave no clear call. Such entries were picked first, then a sample of the others. A potency beside an inconclusive call is a rough fit, not a confirmed value. The source made the active and inactive calls. The call rests on the fitted dose curve; in most records, active means well fitted inhibition curve with a large enough effect; inconclusive means small, poorly fitted or top-dose-only effect; inactive means no such curve, though single readings can be large or run the other way.

Assay: qHTS for Inhibitos of Bacillus subtilis Sfp phosphopantetheinyl transferase (PPTase): Chemistry Optimization Followup in B. Subtilis HM489
Settings: B. subtilis HM489 (acpS-) growth, BacTiter-Glo, 5 h; series mostly up to 114 µM
Excerpt: Phosphopantetheinyl transfer is a process essential to cellular viability and maintenance. Cellular permeable and stable compounds acting as PPTase inhibitors are anticipated to be antimicrobial agents in organisms with complimenting genotypes. […] This experiment evaluated a series of test compounds for antimicrobial activity with B. subtilis HM489 (genotype: acpS- and sfp+), a strain that contains a targeted lesion in the acpS locus and thus requires a functional Sfp gene product for viability. [Mootz HD, 2001] This strain is expected to be sensitized to cell-permeable Sfp inhibitors. NIH Chemical Genomics Center [NCGC] NIH Molecular Libraries Probe Centers Network [MLPCN] MLPCN Grant: MH083266-01 Assay Submitter (PI): Michael Burkart, University of California, San Diego
Innoculum preparation. Bacillus subtilis HM489 is maintained on lysogeny broth (LB) solidified by the addition of 1.5% w/v agar. Single colonies were used to LB medium (2 mL) and shaken overnight at 30 masculineC. In the morning, this culture (100 uL) was used to seed a fresh LB medium (10 mL) and was shaken at 30 masculineC until the culture OD600 reached 0.5. This culture was diluted 1:100 in fresh LB medium to provide the inoculum below. Bacterial susceptibility. LB medium (2 uL) is dispensed into wells of a sterile white 1536-well plate. Test compounds (23 nL) prepared as serial dilutions in DMSO are added to the plate by pintool transfer. Innoculum (2 uL) is added; the plates are covered with a vented Kalypsys assay lid and incubated at 30 masculineC. After 5 hrs, Bac-Titer Glo (4 uL; Promega Corp, Madison, WI) is added to the plates. They are incubated 10 minutes at room temperature and then the luminescence detected in a ViewLux multimodal plate reader.

Compound	Potency
Cc1cc(C)nc(NC(=S)N2CCN(c3nsc4ccccc34)CC2)c1	inconclusive: 167 µM [inhibitor, partial curve, poor fit]
Cc1ccnc(NC(=S)N2CCN(c3ccc(N)cc3)CC2)c1	inconclusive: 93.7 µM [inhibitor, single point]
Cc1cc(C)nc(NC(=S)N2CCN(c3cc(Cl)c(Cl)c(Cl)c3)CC2)c1	inactive
COc1cccc(NC(=S)N2CCN(c3cccc(C(F)(F)F)n3)CC2)n1	inconclusive: 41.8 µM [inhibitor, partial curve]
FC(F)(F)c1cccc(N2CCN(C(=S)Nc3cc4ccccc4cn3)CC2)c1	inactive
Cc1cc(C)nc(NC(=S)N2CCN(c3ccccn3)CC2)c1	inconclusive: 132 nM [inhibitor, full curve, poor fit] and inactive
Cc1ccnc(NC(=S)N[C@H]2CCN(c3cccc(C(F)(F)F)c3)C2)c1	inconclusive: 29.6 µM [inhibitor, partial curve]
FC(F)(F)c1ccc(N2CCN(C(=S)Nc3ccccn3)CC2)cc1	active: 21 µM
Cc1ccnc(NC(=S)N2CCCc3ccc(C(F)(F)F)cc32)c1	inconclusive: 59.1 µM [inhibitor, partial curve, poor fit]
Cc1cc(C)nc(NC(=S)N2CCN(c3ccc(NS(C)(=O)=O)nn3)CC2)c1	inactive
Cc1cc(C)nc(NC(=S)N2CCN(c3cc(Cl)c(Cl)cc3Cl)CC2)c1	inconclusive: 46.9 µM [inhibitor, partial curve]
Cc1cc(C)nc(NC(=S)N2CCN(c3cccc(C(F)(F)F)c3)CC2)c1	active: 33.2 µM
Cc1cc(C)nc(NC(=S)N2CCN(c3nncs3)CC2)c1	inconclusive: 83.5 µM [inhibitor, single point]
Cc1ccnc(NC(=O)N2CCN(c3cccc(C(F)(F)F)c3)CC2)c1	inconclusive: 26.4 µM [inhibitor, partial curve]
Cc1cc(C)nc(NC(=S)N2CCN(c3ccc(Cl)nn3)CC2)c1	inactive
Cc1ccnc(NC(=S)N[C@@H]2CCN(c3cccc(C(F)(F)F)c3)C2)c1	inconclusive: 1.05 µM [inhibitor, full curve]
COc1ccnc(NC(=S)N2CCN(c3ncc(C(F)(F)F)cc3Cl)CC2)c1	active: 11.8 µM
Cc1ccnc(C(=S)N2CCN(c3cccc(C(F)(F)F)c3)CC2)c1	inconclusive: 46.9 µM [inhibitor, partial curve]
Cc1cc(C)nc(NC(=S)N2CCN(c3cccc(C#N)c3)CC2)c1	inconclusive: 52.7 µM [inhibitor, partial curve]
Cc1cc(C)nc(NC(=S)N2CCN(c3ccncc3)CC2)c1	inactive

3 consecutive compounds out of the list so far:
Compound	Potency
Cc1ccnc(NC(=S)N[C@H]2CCN(c3cccc(C(F)(F)F)c3)C2)c1	inconclusive: 29.6 µM [inhibitor, partial curve]
FC(F)(F)c1ccc(N2CCN(C(=S)Nc3ccccn3)CC2)cc1	active: 21 µM
Cc1ccnc(NC(=S)N2CCCc3ccc(C(F)(F)F)cc32)c1	inconclusive: 59.1 µM [inhibitor, partial curve, poor fit]

Further records

Compound	Potency
S=C(Nc1cc(Cl)ccn1)N1CCN(c2cc(Cl)cc(Cl)c2)CC1	active: 10.5 µM
Cc1cc(C)nc(NC(=S)N2CCN(c3ncccc3C#N)CC2)c1	inconclusive: 46.9 µM [inhibitor, partial curve, poor fit]
Cc1ccnc(N=C(N)N2CCN(c3cccc(C(F)(F)F)c3)CC2)c1	inconclusive: 52.7 µM [inhibitor, partial curve]
FC(F)(F)c1cccc(N2CCN(C(=S)Nc3cccnc3)CC2)c1	inconclusive: 33.2 µM [inhibitor, partial curve]
Cc1cc(C)nc(NC(=S)N2CCN(c3ccc(F)c(F)c3F)CC2)c1	active: 21 µM
COc1cccc(NC(=S)N2CCN(c3ccc(Cl)c(Cl)c3)CC2)n1	inactive
FC(F)(F)c1cccc(N2CCN(C(=S)Nc3cnccn3)CC2)c1	inactive
FC(F)(F)c1cccc(N2CCN(C(=S)Nc3ccc4ccccc4n3)CC2)c1	inconclusive: 18.7 µM [inhibitor, full curve]
Cc1cc(C)nc(NC(=S)N2CCN(c3ncccc3Cl)CC2)c1	inactive
Cc1cc(C)nc(NC(=S)N2CCN(Cc3c(F)cccc3Cl)CC2)c1	inactive
Cc1cc(C)nc(NC(=S)N2CCN(c3nccs3)CC2)c1	inactive
Cc1ccnc(NC(=S)N2CCN(c3cccc(C(F)(F)F)c3)C2)c1	inactive
Cc1cc(C)nc(NC(=S)N2CCN(c3cncs3)CC2)c1	inactive
COc1cccc(NC(=S)N2CCN(c3ccc(C(F)(F)F)cc3[N+](=O)[O-])CC2)n1	inconclusive: 26.4 µM [inhibitor, full curve]
Cc1ccnc(NC(=S)N2CCN(c3ccc(Br)cc3)CC2)c1	active: 23.5 µM
COc1ccnc(NC(=S)N2CCN(c3cccc(C(F)(F)F)n3)CC2)c1	inactive
COc1ccc(N2CCN(C(=S)Nc3cc(C)ccn3)CC2)cc1	active: 33.2 µM
Cc1ccnc(NC(=S)N2CCN(c3cc(C(F)(F)F)cc(C(F)(F)F)c3)CC2)c1	active: 3.32 µM
Cc1ccnc(NC(=S)N2CCCN(c3cccc(C(F)(F)F)c3)CC2)c1	active: 7.44 µM
Cc1cc(C)nc(NC(=S)N2CCN(C3=Nc4ccccc4Oc4ccccc43)CC2)c1	inconclusive: 23.5 µM [inhibitor, partial curve, poor fit]
